Measurements from US20080227954A1 (ZEALAND PHARMA A S, published 2008).
Results are given in words; binding and its absence hold for the method and conditions named. Some results given as binding are weak or reduced against the parent protein; the word gives no strength. Where no end group is shown, it is not given here.

Sequences of proteins named here, by UniProt entry; tags and fusion partners are left off.
UniProt P79350: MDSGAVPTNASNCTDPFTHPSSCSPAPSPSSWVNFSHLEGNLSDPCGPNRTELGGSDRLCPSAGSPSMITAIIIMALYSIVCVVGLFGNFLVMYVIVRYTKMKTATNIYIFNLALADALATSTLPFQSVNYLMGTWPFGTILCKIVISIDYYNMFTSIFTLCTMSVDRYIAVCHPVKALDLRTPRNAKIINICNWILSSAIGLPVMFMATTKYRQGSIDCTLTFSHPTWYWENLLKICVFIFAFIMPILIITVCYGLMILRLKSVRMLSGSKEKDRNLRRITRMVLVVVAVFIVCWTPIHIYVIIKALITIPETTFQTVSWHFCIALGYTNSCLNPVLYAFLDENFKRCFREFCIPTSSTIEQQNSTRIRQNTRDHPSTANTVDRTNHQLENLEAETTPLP

Target: µ opioid receptor (bovine caudate nucleus synaptic membrane fraction) (bovine) (UniProt P79350)
Test: displacement of [3H]DAMGO, bovine caudate synaptic membranes

Binder: YGGFLKEKEKE-OH [Leu-Enkephalin-(Lys-Glu)3-OH]
- binding: binds
